Results reported in patent US9676822B2, “Oligopeptidic compounds and uses thereof” (APIM THERAPEUTICS AS, priority 2008, dated 2017).

System: HeLa cells
Experiment: Cellular import and localisation of tag-labelled peptides by confocal microscopy
Format: cell-based
Conditions: fluorescent-tagged peptide incubated with HeLa cells

| Substance | Localization |
| --- | --- |
| MDRWLVKRIWKKKRKIIRQIKIWFQNRRMKWKK-Ahx5-FAM)G (Ahx5-FAM label, G; MDR26-8) | nucleus |
| MDRWLVKWKKKRKIRRRRRRRRRRRK-FAM)G (FAM label, G; MDR26-72) | nucleus |
